PubChem BioAssay AID1508588 – Peter MacCallum Cancer Centre | 2020
Assay: 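Knock-downs boosting vemurafenib effects on melanoma cell growth or lactate release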 (primary screen). Cell system: human WM266.4 melanoma cells (BRAF V600 mutant). Reagents: siRNA pool against human genes, 40 nM. Timing: 96 h from transfection to read-out. Conditions: vemurafenib 300 nM (about IC25), added 48 h after transfection, for 48 h; comparison arm got DMSO vehicle only. Measurement: 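Cell gain (DAPI nuclei at end minus before drug, mean of two replicates) and medium lactate by absorbance per cell, both as ratio to non-targeting siRNA, also grouped into fold-change classes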. Direction: cell gain with vemurafenib: higher = more cell gain than with non-targeting siRNA; lactate per cell with vemurafenib: higher = more lactate made per cell. Call rule: 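a knock-down counts as enhancing when its fold-change classes with vehicle and with vemurafenib, taken together, show a stronger drug effect on cell gain or lactate per cell; exact class pairs not stated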. Meaning of the calls: active = enhances vemurafenib effect; inactive = no enhancement seen.
Shown is an unselected part of about 18,000 reagents tested. 790 of them (4.4%) were called active. 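Calls rest on a combination of fold-change classes in drug and vehicle arms, not all shown here.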 Unmarked entries are inactive. A reagent listed more than once was tested more than once; the source does not tell the runs apart.

no.	gene	cell gain with vemurafenib	lactate per cell with vemurafenib
1	CYP2A6	0.75	1.14
2	UBASH3B	0.56	0.87
3	NDST4	0.72	0.7
4	FH	1.15	0.45
5	OGA	0.67	1.66
6	CREBBP	0.58	1.44
7	ZNF384	0.31	1.89
8	ANO9	0.51	1
9	VAMP8	0.33	1.02
10	LETM2	1.01	0.88
11	MAGEA4	0.33	1.02
12	TOMM34	0.38	-0.08
13	SERF2	0.46	1.3
14	MPZL2	0.64	0.95
15	OR14I1	0.39	1.5
16	CXorf65	0.87	0.56
17	TRERF1	0.6	0.82
18	CDK11B	0.26	1.23
19	LSS	0.26	1.86
20	RNF167	0.54	1.12
21	RNF167	0.35	1.12
22	OR5L2	0.46	0.16
23	NODAL	0.35 (active)	0.48
24	KIF5C	0.8	0.8
25	CAPN12	0.34	0.57
26	C12orf60	0.7	1.21
27	SCNM1	0.14	3.83
28	CASQ1	0.24	2.57
29	SERPINB8	0.66	0.56
30	DDX54	0.12	1.05
31	PCSK1	0.54	1.05
32	ZNF235	0.73	0.76
33	DMAC2	0.47	1.02
34	CDKN1B	0.31	0.68
35	COL11A2	0.54	1.92
36	PCTP	0.96	0.82
37	LSR	0.12	0.94
38	CNIH2	0.57	2.1
39	LILRA5	0.5	1.17
40	CLK4	0.9	0.34
41	GTF2H3	0.62	1.04
42	CHRNA6	0.79	1.52
43	CBLN3	0.94	0.61
44	SLC10A3	0.37	0.97
45	POLD4	0.24	1.09
46	TMEM106A	0	0.52
47	RNF185	0.95	0.7
48	HINT1	0.65	0.57
49	TRUB1	1.05	0.54
50	SLC35C1	0.65	0.8
51	DDR1	0.22	2.04
52	CCDC122	0.2	2.08
53	STN1	0.66	1.73
54	SPATA32	0.28	0.78
55	MMP3	0.81 (active)	0.14
56	DLGAP1	0.43	0.82
57	PLCXD1	0.42	1.25
58	PAOX	0.78	0.82
59	BMP1	0.52	0.86
60	AOC1	0.73	1.09
61	ARHGEF18	0.71	0.5
62	KARS1	0.3	0.5
63	SACK1F	0.75	1.79
64	RDX	0.36	0.43
65	WNT5B	0.96	0.68
66	SEC11B	0.94	1.06
67	SMYD5	0.84	0.95
68	REPIN1	0.71	0.64
69	ZNF566	0.92	0.76
70	LRRC17	0.68	1.23
71	CLDN12	0.56	1.13
72	RREB1	0.66	1.27
73	RSPO4	0.11	0.82
74	DZANK1	0.38	1.5
75	ZNF549	0.43	0.44
76	SUPT6H	-0.04	1.75
77	PYGO1	0.35	0.88
78	ATOX1	0.69	0.85
79	MOSPD2	0.96	0.82
80	ADPRHL1	0.91	1.04
81	TRIT1	0.68	1.06
82	TMF1	0.45	1.05
83	GABRE	0.38	0.54
84	KCNA7	0.53	0.76

Records listed above marked active (2):
gene	cell gain with vemurafenib	lactate per cell with vemurafenib
NODAL	0.35 (active)	0.48
MMP3	0.81 (active)	0.14
